# Measured values reported in the supplement of paper PMC10849652.
# Chains of the proteins cited; added tags and fusions are not shown. Lines headed by an entry give the natural chain unless they say otherwise; changes in a name come on top.
# UniProt P52948: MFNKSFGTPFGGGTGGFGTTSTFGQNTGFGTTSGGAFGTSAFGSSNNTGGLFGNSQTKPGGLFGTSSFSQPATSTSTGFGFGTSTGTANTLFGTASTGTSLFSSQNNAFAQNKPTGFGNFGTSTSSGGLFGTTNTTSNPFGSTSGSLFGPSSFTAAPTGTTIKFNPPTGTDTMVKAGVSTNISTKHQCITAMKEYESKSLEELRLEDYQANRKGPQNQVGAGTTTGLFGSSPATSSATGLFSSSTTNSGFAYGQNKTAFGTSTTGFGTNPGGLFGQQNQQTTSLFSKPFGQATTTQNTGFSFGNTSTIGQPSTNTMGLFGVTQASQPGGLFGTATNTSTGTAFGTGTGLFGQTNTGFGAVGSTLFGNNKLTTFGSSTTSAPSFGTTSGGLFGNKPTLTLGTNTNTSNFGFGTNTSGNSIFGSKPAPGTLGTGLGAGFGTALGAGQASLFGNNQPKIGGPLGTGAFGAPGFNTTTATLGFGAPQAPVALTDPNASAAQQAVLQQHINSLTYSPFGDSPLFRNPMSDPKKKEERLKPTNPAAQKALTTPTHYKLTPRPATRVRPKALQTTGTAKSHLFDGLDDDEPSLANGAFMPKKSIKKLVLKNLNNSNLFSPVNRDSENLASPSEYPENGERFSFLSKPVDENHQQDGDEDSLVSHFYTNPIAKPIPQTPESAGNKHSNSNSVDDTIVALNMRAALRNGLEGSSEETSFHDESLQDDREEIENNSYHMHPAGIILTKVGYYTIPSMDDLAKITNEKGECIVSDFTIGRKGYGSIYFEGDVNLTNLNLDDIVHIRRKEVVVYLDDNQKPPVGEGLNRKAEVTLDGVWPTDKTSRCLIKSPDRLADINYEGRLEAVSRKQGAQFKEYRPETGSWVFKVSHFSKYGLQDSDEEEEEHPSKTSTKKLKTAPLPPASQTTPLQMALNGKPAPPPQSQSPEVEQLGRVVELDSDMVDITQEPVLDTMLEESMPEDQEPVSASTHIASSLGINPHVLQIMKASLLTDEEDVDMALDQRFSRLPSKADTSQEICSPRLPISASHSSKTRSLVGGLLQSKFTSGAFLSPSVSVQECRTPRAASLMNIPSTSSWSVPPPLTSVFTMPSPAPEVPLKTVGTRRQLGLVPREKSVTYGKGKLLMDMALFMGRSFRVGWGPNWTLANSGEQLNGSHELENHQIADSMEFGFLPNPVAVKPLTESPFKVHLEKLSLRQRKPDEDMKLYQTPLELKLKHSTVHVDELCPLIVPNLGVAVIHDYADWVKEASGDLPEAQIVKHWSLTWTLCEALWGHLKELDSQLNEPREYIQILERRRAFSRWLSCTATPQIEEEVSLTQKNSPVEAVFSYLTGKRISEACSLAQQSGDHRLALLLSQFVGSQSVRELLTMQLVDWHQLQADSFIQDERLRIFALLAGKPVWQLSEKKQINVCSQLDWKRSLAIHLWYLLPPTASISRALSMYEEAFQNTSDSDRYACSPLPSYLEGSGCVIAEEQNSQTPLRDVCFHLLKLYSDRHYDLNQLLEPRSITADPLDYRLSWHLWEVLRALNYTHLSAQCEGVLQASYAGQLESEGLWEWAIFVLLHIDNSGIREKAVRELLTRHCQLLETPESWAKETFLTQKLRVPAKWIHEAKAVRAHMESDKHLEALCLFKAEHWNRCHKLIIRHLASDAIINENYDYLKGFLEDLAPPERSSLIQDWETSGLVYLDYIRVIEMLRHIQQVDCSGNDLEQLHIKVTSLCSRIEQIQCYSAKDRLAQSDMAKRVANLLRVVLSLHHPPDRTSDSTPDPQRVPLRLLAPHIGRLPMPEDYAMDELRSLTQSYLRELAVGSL
# UniProt Q6PK18: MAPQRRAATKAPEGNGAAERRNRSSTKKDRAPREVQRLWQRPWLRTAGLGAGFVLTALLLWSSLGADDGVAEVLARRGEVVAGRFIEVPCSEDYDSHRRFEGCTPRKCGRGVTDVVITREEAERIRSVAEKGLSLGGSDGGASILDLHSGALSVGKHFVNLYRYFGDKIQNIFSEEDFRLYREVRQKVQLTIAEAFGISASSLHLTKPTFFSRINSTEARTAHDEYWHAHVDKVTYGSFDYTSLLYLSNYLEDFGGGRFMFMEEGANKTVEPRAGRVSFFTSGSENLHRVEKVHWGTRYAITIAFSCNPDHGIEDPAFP
# UniProt Q8WZ82: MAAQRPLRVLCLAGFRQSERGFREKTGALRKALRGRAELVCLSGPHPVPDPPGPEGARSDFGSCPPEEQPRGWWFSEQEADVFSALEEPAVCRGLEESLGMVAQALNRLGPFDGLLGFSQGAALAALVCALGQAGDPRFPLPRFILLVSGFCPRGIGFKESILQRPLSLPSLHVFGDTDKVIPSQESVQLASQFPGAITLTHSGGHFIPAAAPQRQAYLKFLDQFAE
# UniProt Q9H6K4: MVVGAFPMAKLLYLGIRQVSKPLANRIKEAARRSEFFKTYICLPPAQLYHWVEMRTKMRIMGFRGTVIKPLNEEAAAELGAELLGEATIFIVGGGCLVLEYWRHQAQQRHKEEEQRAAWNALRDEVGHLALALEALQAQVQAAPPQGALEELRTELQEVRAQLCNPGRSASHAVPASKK
# UniProt Q8N6M0: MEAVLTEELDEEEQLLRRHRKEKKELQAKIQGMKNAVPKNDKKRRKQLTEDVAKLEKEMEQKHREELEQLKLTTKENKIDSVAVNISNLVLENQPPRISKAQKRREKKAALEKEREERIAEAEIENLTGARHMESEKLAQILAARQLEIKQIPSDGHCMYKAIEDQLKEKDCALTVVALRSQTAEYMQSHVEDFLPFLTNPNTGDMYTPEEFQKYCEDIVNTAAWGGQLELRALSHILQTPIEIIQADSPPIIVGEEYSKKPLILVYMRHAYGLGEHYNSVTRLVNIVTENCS
# UniProt O43482, whole entry, looked up: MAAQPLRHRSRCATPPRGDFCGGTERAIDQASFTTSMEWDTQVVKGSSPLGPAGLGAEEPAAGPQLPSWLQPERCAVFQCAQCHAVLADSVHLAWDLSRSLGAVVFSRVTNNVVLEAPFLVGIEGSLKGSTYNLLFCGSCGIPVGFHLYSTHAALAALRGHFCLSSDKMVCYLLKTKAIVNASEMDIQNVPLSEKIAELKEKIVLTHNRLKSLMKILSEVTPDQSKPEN
# UniProt P68402: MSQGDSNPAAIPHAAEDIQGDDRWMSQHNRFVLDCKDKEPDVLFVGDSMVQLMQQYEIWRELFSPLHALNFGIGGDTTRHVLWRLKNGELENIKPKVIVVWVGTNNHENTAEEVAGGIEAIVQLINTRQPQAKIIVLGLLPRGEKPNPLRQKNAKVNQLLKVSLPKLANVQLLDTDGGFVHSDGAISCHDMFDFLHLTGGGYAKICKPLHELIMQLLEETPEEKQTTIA
# UniProt O43913: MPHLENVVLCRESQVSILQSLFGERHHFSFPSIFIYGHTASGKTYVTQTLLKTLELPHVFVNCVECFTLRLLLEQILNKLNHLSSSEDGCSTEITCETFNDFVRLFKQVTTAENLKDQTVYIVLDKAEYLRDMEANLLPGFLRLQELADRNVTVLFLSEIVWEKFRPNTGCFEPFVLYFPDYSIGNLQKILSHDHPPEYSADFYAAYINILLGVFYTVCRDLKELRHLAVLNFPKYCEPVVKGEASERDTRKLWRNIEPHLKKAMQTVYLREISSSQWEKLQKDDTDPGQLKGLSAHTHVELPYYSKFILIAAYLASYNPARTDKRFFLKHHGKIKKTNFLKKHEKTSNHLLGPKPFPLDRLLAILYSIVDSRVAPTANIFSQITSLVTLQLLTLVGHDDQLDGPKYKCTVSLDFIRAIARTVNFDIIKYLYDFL
# UniProt P61970, whole entry, looked up: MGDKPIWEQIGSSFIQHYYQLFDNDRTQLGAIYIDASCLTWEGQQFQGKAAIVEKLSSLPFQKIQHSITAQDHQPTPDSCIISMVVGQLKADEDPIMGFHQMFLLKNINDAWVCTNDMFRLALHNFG
# UniProt Q9UNF0: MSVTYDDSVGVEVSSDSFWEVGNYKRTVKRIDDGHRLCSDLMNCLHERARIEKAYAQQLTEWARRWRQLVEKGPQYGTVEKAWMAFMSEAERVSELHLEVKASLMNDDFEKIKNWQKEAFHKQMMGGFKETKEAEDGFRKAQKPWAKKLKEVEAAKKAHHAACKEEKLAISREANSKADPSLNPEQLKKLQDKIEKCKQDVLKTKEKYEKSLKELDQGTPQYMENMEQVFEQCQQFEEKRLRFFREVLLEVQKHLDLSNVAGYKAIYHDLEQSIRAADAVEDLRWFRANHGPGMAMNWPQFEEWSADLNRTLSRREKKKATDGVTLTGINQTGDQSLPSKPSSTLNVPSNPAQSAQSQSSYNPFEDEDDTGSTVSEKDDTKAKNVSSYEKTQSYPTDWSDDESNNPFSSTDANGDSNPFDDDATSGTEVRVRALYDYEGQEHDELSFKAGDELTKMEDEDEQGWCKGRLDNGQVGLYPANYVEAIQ
# UniProt A6NDB9: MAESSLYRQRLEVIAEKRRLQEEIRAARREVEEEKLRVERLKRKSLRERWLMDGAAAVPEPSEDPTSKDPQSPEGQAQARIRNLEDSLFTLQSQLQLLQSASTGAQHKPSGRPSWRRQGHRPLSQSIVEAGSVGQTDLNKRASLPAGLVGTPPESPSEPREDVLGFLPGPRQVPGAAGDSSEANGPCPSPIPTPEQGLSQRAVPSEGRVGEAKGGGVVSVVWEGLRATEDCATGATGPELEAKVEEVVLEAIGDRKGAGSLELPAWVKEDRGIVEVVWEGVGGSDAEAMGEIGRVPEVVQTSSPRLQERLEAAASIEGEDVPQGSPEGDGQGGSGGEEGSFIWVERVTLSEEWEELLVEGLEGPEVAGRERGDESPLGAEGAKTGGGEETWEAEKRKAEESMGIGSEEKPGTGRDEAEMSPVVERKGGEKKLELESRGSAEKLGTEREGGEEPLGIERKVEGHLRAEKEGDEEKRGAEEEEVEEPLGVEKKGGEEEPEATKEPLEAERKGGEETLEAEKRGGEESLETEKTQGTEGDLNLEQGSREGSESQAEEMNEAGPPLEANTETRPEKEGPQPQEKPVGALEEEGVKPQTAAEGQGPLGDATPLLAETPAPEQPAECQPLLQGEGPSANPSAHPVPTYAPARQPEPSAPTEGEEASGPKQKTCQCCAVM
# UniProt Q8NFH4: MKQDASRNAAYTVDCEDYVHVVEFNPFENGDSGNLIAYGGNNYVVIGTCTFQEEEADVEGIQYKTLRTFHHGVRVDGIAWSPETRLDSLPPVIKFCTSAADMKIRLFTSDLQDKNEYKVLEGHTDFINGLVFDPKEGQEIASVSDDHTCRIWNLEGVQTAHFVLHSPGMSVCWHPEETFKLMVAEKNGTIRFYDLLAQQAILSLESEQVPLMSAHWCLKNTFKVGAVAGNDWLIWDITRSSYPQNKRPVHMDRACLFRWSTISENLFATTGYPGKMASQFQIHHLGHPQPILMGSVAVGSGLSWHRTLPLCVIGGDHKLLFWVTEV
# UniProt Q13438: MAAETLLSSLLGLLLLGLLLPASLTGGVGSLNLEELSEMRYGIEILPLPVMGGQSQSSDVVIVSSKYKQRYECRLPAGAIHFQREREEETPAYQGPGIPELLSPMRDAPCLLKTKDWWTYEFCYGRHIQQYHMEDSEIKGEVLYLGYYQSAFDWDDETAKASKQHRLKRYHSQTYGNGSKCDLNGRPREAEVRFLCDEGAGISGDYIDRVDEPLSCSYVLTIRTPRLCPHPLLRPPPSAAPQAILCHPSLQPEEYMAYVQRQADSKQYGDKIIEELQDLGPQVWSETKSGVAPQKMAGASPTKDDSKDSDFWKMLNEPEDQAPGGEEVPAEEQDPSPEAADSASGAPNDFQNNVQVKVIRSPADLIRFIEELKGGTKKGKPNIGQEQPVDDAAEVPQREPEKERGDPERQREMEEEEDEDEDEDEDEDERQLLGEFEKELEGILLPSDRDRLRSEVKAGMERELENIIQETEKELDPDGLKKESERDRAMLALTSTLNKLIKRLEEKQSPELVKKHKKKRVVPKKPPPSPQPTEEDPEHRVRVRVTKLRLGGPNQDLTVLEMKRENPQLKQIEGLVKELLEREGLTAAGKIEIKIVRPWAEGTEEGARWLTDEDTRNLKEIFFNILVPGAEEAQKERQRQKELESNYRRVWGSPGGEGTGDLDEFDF
# UniProt Q8NFH3: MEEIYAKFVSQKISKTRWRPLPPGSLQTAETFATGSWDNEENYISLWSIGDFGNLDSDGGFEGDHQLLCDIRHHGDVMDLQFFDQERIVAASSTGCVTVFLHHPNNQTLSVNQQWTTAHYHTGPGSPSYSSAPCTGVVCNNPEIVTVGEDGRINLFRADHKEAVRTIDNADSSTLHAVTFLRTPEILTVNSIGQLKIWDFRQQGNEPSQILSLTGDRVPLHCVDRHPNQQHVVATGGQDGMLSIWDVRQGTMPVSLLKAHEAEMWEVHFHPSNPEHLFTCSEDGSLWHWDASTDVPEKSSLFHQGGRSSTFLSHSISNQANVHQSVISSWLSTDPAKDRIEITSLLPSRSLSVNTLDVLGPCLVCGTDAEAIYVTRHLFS
# UniProt Q9NRP0: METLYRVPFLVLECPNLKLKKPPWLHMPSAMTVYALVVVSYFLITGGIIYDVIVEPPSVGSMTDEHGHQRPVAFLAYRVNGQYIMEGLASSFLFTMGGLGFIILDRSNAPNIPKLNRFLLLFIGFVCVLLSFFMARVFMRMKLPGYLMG
# This is one part of the list.
# How the values were obtained:
# Test in all cases: log2 fold change, soluble protein after heating vs DMSO (PISA); higher = thermal stabilisation; K562 lysate, 10 uM; active = over 0.2 and 3.5 SD of the protein, either way, in both replicates (recomputed)
# [1] = compound: C#Cc1cccc(Nc2ncnc3cc(OCCOC)c(OCCOC)cc23)c1 [erlotinib]
# In short: (§1)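 A 30 min treatment with 10 μM compound was applied to crude K562 extract at 1 mg/mL protein in PBS pH 7.4 with 1 mM MgCl2. Heating for 3 min spanned 48°C-58°C, after which aliquots were pooled, adjusted to 0.5% NP-40 at 4°C and spun at 21,000xg for 90 min. TMTpro 16plex LC-MS/MS of the supernatant, with channel sums equalised, gave values recorded as log-two fold change in thermal stability against solvent controls, from duplicates.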
# [2] = compound: C/C(=N\NC(=O)C1=CC(=CC=C1)S(=O)(=O)N2CCOCC2)/C3=C(C=CC(=C3)Cl)O
# In short: as §1
# [3] = compound: C1=CC(=CC=C1C2=NC3=C(N2)C=C(C=C3)C(=O)N)OC4=CC=C(C=C4)Cl
# In short: as §1
# [4] = compound: C1=CC2=C(C=CC(=C2)/C=C\3/C(=O)NC(=NCC4=CC=CS4)S3)N=C1
# In short: as §1
# [5] = compound: C1=CC2=NC=CN=C2C=C1/C=C/3\C(=O)NC(=O)S3
# In short: as §1
# [6] = compound: C1=CC=C(C=C1)C2=NC(=C(N2)C3=CC=NC=C3)C4=CC(=C(C=C4)Cl)O
# In short: as §1
# [7] = compound: C1=CC=C2C(=C1)C3=NNC4=CC=CC(=C43)C2=O
# In short: as §1
# [8] = compound: C1CCN(C1)C(=O)NC2=CC=CC(=C2)NC3=NC=C(C(=N3)NCCC4=CN=CN4)Br
# In short: as §1
# [9] = compound: C1CN(CCC1(CC2=CC=C(C=C2)Cl)N)C3=NC=NC4=C3C=CN4
# In short: as §1
# [10] = compound: C1COCCN1CCN2C3=CC=CC=C3N=C2NC(=O)C4=CC(=CC=C4)[N+](=O)[O-] [IRAK-1-4 Inhibitor I]
# In short: as §1
Target,log2 fold change [1],log2 fold change [2],log2 fold change [3],log2 fold change [4],log2 fold change [5],log2 fold change [6],log2 fold change [7],log2 fold change [8],log2 fold change [9],log2 fold change [10]
NUP98 (UniProt P52948),inactive: -0.018,inactive: 0.017,inactive: 0.023,inactive: -0.026,inactive: 0.005,inactive: -0.079,inactive: -0.004,inactive: 0.015,inactive: 0.021,inactive: 0.002
ODF2 (UniProt Q5BJF6),inactive: 0.092,inactive: -0.003,inactive: -0.027,inactive: 0.043,inactive: -0.056,inactive: 0.145,inactive: 0.023,inactive: -0.12,inactive: 0.141,inactive: 0.107
OGFOD3 (UniProt Q6PK18),inactive: -0.026,inactive: 0.069,inactive: -0.005,inactive: -0.007,inactive: -0.032,inactive: -0.035,inactive: -0.047,inactive: -0.034,inactive: -0.018,inactive: -0.105
OPA1 isoform 2 (UniProt O60313),inactive: 0.003,inactive: 0.03,inactive: -0.078,inactive: 0.024,inactive: 0.01,inactive: -0.022,inactive: -0.026,inactive: -0.015,inactive: 0.021,inactive: 0.003
OVCA2 (UniProt Q8WZ82),inactive: 0.098,inactive: -0.31,inactive: -0.048,inactive: -0.095,inactive: -0.059,inactive: 0.089,inactive: -0.074,inactive: -0.072,inactive: -0.063,inactive: 0.005
PAICS (UniProt P22234),inactive: -0.02,inactive: -0.001,inactive: 0.013,inactive: -0.048,inactive: -0.02,inactive: -0.005,inactive: 0.012,inactive: 0.001,inactive: -0.03,inactive: 0.014
OPA3 (UniProt Q9H6K4),inactive: 0.007,inactive: -0.025,inactive: -0.186,inactive: 0.074,inactive: -0.035,inactive: -0.04,inactive: -0.106,inactive: -0.042,inactive: 0.144,inactive: 0.075
PARK7 (UniProt Q99497),inactive: 0.014,inactive: -0.046,inactive: 0.014,inactive: -0.04,inactive: 0.003,inactive: 0.014,inactive: 0.006,inactive: 0.042,inactive: 0.044,inactive: 0.009
OTUD6B (UniProt Q8N6M0),inactive: 0.024,inactive: 0.04,inactive: 0.072,inactive: 0.034,inactive: 0.017,inactive: -0.006,inactive: -0.026,inactive: 0.009,inactive: 0.016,inactive: -0.008
OIP5 (UniProt O43482),inactive: 0.015,inactive: -0.073,inactive: -0.012,inactive: -0.005,inactive: -0.072,inactive: 0.059,inactive: 0.064,inactive: 0.032,inactive: 0.03,inactive: 0.044
NUSAP1 (UniProt Q9BXS6),inactive: -0.011,inactive: -0.466,inactive: 0.025,inactive: -0.008,inactive: -0.033,inactive: 0.008,inactive: 0.035,inactive: 0.012,inactive: 0.001,inactive: -0.005
PAFAH1B2 (UniProt P68402),inactive: 0.051,inactive: -0.028,inactive: 0.001,inactive: -0.038,inactive: 0.032,inactive: 0.002,inactive: -0.022,inactive: -0.057,inactive: 0.044,inactive: -0.013
ORC5 (UniProt O43913),inactive: 0.014,inactive: 0.021,inactive: -0.017,inactive: 0.003,inactive: 0.045,inactive: 0.029,inactive: -0.016,inactive: -0.085,inactive: -0.061,inactive: -0.068
PAICS (UniProt E9PBS1),inactive: 0.017,inactive: 0.179,inactive: -0.012,inactive: -0.037,inactive: -0.044,inactive: -0.005,inactive: -0.012,inactive: -0.145,inactive: -0.204,inactive: -0.014
PAK4 (UniProt O96013),inactive: 0,inactive: -0.076,inactive: 0.072,inactive: 0.052,inactive: -0.006,inactive: -0.005,inactive: 0.335,inactive: 0.469,inactive: 0.124,inactive: -0.044
NXF1 (UniProt Q9UBU9),inactive: 0.058,inactive: -0.019,inactive: -0.033,inactive: 0.003,inactive: -0.055,inactive: -0.004,inactive: 0,inactive: 0.04,inactive: -0.019,inactive: -0.004
NUTF2 (UniProt P61970),inactive: 0.022,inactive: 0.068,inactive: -0.06,inactive: -0.023,inactive: -0.051,inactive: -0.02,inactive: 0.09,inactive: 0.028,inactive: 0.011,inactive: 0.041
NUP88 (UniProt Q99567),inactive: 0.006,inactive: -0.023,inactive: 0.041,inactive: -0.001,inactive: 0.006,inactive: -0.077,inactive: 0.017,inactive: 0.004,inactive: 0.018,inactive: 0.011
PACSIN2 (UniProt Q9UNF0),inactive: 0.012,inactive: -0.043,inactive: -0.019,inactive: -0.007,inactive: -0.009,inactive: 0.009,inactive: 0.026,inactive: 0.01,inactive: 0.021,inactive: -0.021
OLA1 (UniProt Q9NTK5),inactive: 0.038,inactive: 0.031,inactive: 0.029,inactive: -0.02,inactive: 0.02,inactive: 0.007,inactive: -0.048,inactive: 0.022,inactive: 0.02,inactive: -0.02
OSGEP (UniProt Q9NPF4),inactive: 0.012,inactive: -0.002,inactive: 0.041,inactive: -0.148,active: -0.236,inactive: 0.008,inactive: -0.058,inactive: 0.009,inactive: -0.028,inactive: -0.022
PALM3 (UniProt A6NDB9),inactive: -0.033,inactive: -0.044,inactive: -0.012,inactive: 0.006,inactive: 0.009,inactive: -0.016,inactive: -0.076,inactive: -0.002,inactive: 0.042,inactive: 0.004
OTUD4 (UniProt Q01804),inactive: -0.004,inactive: -0.043,inactive: 0,inactive: -0.071,inactive: -0.069,inactive: -0.006,inactive: -0.024,inactive: -0.004,inactive: 0.019,inactive: -0.035
NUP37 (UniProt Q8NFH4),inactive: 0.008,inactive: 0.008,inactive: -0.028,inactive: -0.031,inactive: 0.028,inactive: -0.016,inactive: -0.025,inactive: -0.003,inactive: -0.008,inactive: -0.063
PACC1 (UniProt Q9H813),inactive: -0.139,inactive: 0.04,inactive: 0.012,inactive: 0.019,inactive: -0.253,inactive: 0.047,inactive: 0.054,inactive: -0.132,inactive: 0.002,inactive: 0.124
PARD3 (UniProt Q8TEW0),inactive: 0.1,inactive: -0.288,inactive: 0.051,inactive: -0.146,inactive: -0.029,inactive: 0.021,inactive: 0.007,inactive: 0.067,inactive: 0.017,inactive: 0.028
OS9 (UniProt Q13438),inactive: -0.057,inactive: 0.004,inactive: 0.02,inactive: -0.007,inactive: 0.005,inactive: -0.007,inactive: -0.001,inactive: 0.02,inactive: 0.02,inactive: 0.012
NUP43 (UniProt Q8NFH3),inactive: -0.001,inactive: -0.13,inactive: 0.014,inactive: 0.004,inactive: 0.008,inactive: -0.025,inactive: -0.021,inactive: 0.01,inactive: 0.034,inactive: 0.02
PARD6B (UniProt Q9BYG5),inactive: 0.018,inactive: -0.01,inactive: -0.003,inactive: 0.005,inactive: 0.029,inactive: 0.009,inactive: 0.019,inactive: 0.039,inactive: 0.023,inactive: -0.036
OSTC (UniProt Q9NRP0),inactive: 0.084,inactive: -0.248,inactive: -0.091,inactive: 0.087,inactive: 0.033,inactive: -0.04,inactive: 0.154,inactive: -0.13,inactive: 0.137,inactive: 0.211

# Not a retest: an excerpt of the list.
Target,log2 fold change [1],log2 fold change [2],log2 fold change [3],log2 fold change [4],log2 fold change [5],log2 fold change [6],log2 fold change [7],log2 fold change [8],log2 fold change [9],log2 fold change [10]
NUP37 (UniProt Q8NFH4),inactive: 0.008,inactive: 0.008,inactive: -0.028,inactive: -0.031,inactive: 0.028,inactive: -0.016,inactive: -0.025,inactive: -0.003,inactive: -0.008,inactive: -0.063
PACC1 (UniProt Q9H813),inactive: -0.139,inactive: 0.04,inactive: 0.012,inactive: 0.019,inactive: -0.253,inactive: 0.047,inactive: 0.054,inactive: -0.132,inactive: 0.002,inactive: 0.124
